Experimental data as given in publication PMC5097169.
No constants are given. Whether binding was seen depends on the method and setting. Binding can be weak; no strength is given.

Sequences of proteins named here, by UniProt entry; tags and fusion partners are left off. A change or cut given only in a name is not applied to a line headed by its entry.
UniProt Q8AVH1: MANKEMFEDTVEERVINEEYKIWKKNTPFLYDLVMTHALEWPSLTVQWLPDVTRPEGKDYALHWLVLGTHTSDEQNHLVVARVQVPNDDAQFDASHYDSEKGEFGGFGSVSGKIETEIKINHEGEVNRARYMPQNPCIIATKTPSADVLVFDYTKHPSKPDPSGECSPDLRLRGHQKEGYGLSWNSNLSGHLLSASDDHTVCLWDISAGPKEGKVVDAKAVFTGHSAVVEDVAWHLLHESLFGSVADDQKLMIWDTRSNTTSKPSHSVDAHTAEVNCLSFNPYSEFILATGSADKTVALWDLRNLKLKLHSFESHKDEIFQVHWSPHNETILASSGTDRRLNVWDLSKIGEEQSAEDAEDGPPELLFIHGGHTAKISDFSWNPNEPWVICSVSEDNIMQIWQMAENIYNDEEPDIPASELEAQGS
UniProt Q641D5: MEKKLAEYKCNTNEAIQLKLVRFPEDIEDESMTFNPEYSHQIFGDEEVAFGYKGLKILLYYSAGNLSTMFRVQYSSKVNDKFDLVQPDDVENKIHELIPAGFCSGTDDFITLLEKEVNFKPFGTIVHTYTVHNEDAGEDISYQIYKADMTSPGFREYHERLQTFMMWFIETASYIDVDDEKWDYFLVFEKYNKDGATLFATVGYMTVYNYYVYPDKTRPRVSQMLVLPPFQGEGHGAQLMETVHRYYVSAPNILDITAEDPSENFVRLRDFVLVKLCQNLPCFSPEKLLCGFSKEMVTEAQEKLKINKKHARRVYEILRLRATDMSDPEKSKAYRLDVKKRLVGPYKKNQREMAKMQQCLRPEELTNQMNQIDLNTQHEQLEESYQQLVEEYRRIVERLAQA

Biological target: Flag RbAp46 (Xenopus, recombinant) (Xenopus) (UniProt Q8AVH1)
Assay: pull-down; GST-histone tails coupled to NHS Sepharose (20 μl resin) with 0.7 μg Hat1, RbAp46 or RbAp48, or RbAp46 with Hat1, in 150 μl 20 mM K-HEPES pH 7.4, 50 mM KCl, 0.1% Tween-20, 5 mM DTT; 2 h at 4 °C; washes with 300 mM KCl; coomassie-stained gel; both purified

Flag Hat1 (Xenopus, recombinant) (from UniProt Q641D5) (enzyme)
binding: binds
